# According to the supplement of paper PMC8728848:
# The list shows a part of the results.
# B1: SP15308C-bot-338-23-338 (Bacteroides ovatus) (protein)
# chain: DEWTDEQFKQLISFKTQPGGWGVTDVHVRYANSAKYTYNLPVLVSGSTDNTDDRLVSFSLRDDTLDILNFEKFGNRPELYFRELPQKYYSFPKELTIPAGQSHALLPIEFSLDGLDDSQKWALPLKVCEDANGTYAVNPRKYYRTAVLRPILFNEFSGRFSGSSLLGTMAGESDIKFSSTEIKLNVVTDSIVFFYAGQRTEDYEDRINYKVFLQFTGDKVDSKKDLYKMKIWAENEKLKFNSYSTPTYKVSSEMDATKTYLKHTYIVISDIDFDFVDYTSVPNYEIEYNMKGGLSVSRDLDTRKPDEDQGSDSKWW
# Legend:
# Test in all cases: glycan array binding signal (z-score within array); higher = stronger binding
# Conditions in all cases: glycan notation: IUPAC condensed, linker removed
# [1] = molecular target: GlcNAc(a1-6)Gal(b1-4)GlcNAc
# In short: (§1)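 The binding signal is a Z-score computed within each array and averaged over linkers. Arrays of the same protein sequence at different concentrations or buffers were also averaged together. Data originate from 3228 arrays in the Consortium for Functional Glycomics database, kept only where the protein sequence was available.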
# [2] = molecular target: GlcNAc(b1-2)Gal(b1-3)GalNAc
# In short: as §1
# [3] = molecular target: GlcNAc(b1-2)Man(a1-3)[GlcNAc(b1-2)Man(a1-6)]Man(b1-4)GlcNAc(b1-4)GlcNAc
# In short: as §1
# [4] = molecular target: GlcNAc(b1-2)Man(a1-3)[GlcNAc(b1-2)Man(a1-6)]Man(b1-4)GlcNAc(b1-4)[Fuc(a1-6)]GlcNAc
# In short: as §1
# [5] = molecular target: GlcNAc(b1-2)Man(a1-3)[GlcNAc(b1-4)][GlcNAc(b1-2)Man(a1-6)]Man(b1-4)GlcNAc(b1-4)GlcNAc
# In short: as §1
# [6] = molecular target: GlcNAc(b1-2)Man(a1-3)[GlcNAc(b1-4)][GlcNAc(b1-2)Man(a1-6)]Man(b1-4)GlcNAc(b1-4)[Fuc(a1-6)]GlcNAc
# In short: as §1
# [7] = molecular target: GlcNAc(b1-2)[GlcNAc(b1-4)]Man(a1-3)[GlcNAc(b1-2)Man(a1-6)]Man(b1-4)GlcNAc(b1-4)GlcNAc
# In short: as §1
# [8] = molecular target: GlcNAc(b1-2)[GlcNAc(b1-4)]Man(a1-3)[GlcNAc(b1-4)][GlcNAc(b1-2)Man(a1-6)]Man(b1-4)GlcNAc(b1-4)GlcNAc
# In short: as §1
# [9] = molecular target: GlcNAc(b1-2)[GlcNAc(b1-4)]Man(a1-3)[GlcNAc(b1-4)][GlcNAc(b1-2)[GlcNAc(b1-6)]Man(a1-6)]Man(b1-4)GlcNAc(b1-4)GlcNAc
# In short: as §1
# [10] = molecular target: GlcNAc(b1-2)[GlcNAc(b1-4)]Man(a1-3)[GlcNAc(b1-4)][GlcNAc(b1-2)[GlcNAc(b1-6)]Man(a1-6)]Man(b1-4)GlcNAc(b1-4)[Fuc(a1-6)]GlcNAc
# In short: as §1
# [11] = molecular target: GlcNAc(b1-2)[GlcNAc(b1-6)]Man(a1-6)[GlcNAc(b1-2)Man(a1-3)]Man(b1-4)GlcNAc(b1-4)GlcNAc
# In short: as §1
# [12] = molecular target: GlcNAc(b1-2)[GlcNAc(b1-6)]Man(a1-6)[GlcNAc(b1-2)Man(a1-3)]Man(b1-4)GlcNAc(b1-4)[Fuc(a1-6)]GlcNAc
# In short: as §1
# [13] = molecular target: GlcNAc(b1-2)[GlcNAc(b1-6)]Man(a1-6)[GlcNAc(b1-4)][GlcNAc(b1-2)Man(a1-3)]Man(b1-4)GlcNAc(b1-4)GlcNAc
# In short: as §1
# GlcNAc(b1-3)Fuc = molecular target: GlcNAc(b1-3)Fuc
# In short: as §1
# GlcNAc(b1-3)Gal = molecular target: GlcNAc(b1-3)Gal
# In short: as §1
# [14] = molecular target: GlcNAc(b1-3)Gal(b1-3)GalNAc
# In short: as §1
# GlcNAc(b1-3)Gal(b1-4)Glc = molecular target: GlcNAc(b1-3)Gal(b1-4)Glc
# In short: as §1
# [15] = molecular target: GlcNAc(b1-3)Gal(b1-4)GlcNAc
# In short: as §1
# [16] = molecular target: GlcNAc(b1-3)Gal(b1-4)GlcNAc(b1-2)Man(a1-3)[GlcNAc(b1-3)Gal(b1-4)GlcNAc(b1-2)Man(a1-6)]Man(b1-4)GlcNAc(b1-4)GlcNAc
# In short: as §1
# [17] = molecular target: GlcNAc(b1-3)Gal(b1-4)GlcNAc(b1-2)Man(a1-3)[GlcNAc(b1-3)Gal(b1-4)GlcNAc(b1-2)Man(a1-6)]Man(b1-4)GlcNAc(b1-4)[Fuc(a1-6)]GlcNAc
# In short: as §1
# [18] = molecular target: GlcNAc(b1-3)Gal(b1-4)GlcNAc(b1-2)[GlcNAc(b1-3)Gal(b1-4)GlcNAc(b1-6)]Man(a1-6)[GlcNAc(b1-3)Gal(b1-4)GlcNAc(b1-2)Man(a1-3)]Man(b1-4)GlcNAc(b1-4)GlcNAc
# In short: as §1
# [19] = molecular target: GlcNAc(b1-3)Gal(b1-4)GlcNAc(b1-3)Gal(b1-4)GlcNAc
# In short: as §1
# [20] = molecular target: GlcNAc(b1-3)Gal(b1-4)GlcNAc(b1-3)Gal(b1-4)GlcNAc(b1-2)Man(a1-3)[GlcNAc(b1-3)Gal(b1-4)GlcNAc(b1-3)Gal(b1-4)GlcNAc(b1-2)Man(a1-6)]Man(b1-4)GlcNAc(b1-4)GlcNAc
# In short: as §1
# [21] = molecular target: GlcNAc(b1-3)Gal(b1-4)GlcNAc(b1-3)Gal(b1-4)GlcNAc(b1-2)Man(a1-3)[GlcNAc(b1-3)Gal(b1-4)GlcNAc(b1-3)Gal(b1-4)GlcNAc(b1-2)Man(a1-6)]Man(b1-4)GlcNAc(b1-4)[Fuc(a1-6)]GlcNAc
# In short: as §1
# [22] = molecular target: GlcNAc(b1-3)Gal(b1-4)GlcNAc(b1-3)Gal(b1-4)GlcNAc(b1-2)[GlcNAc(b1-3)Gal(b1-4)GlcNAc(b1-3)Gal(b1-4)GlcNAc(b1-6)]Man(a1-6)[GlcNAc(b1-3)Gal(b1-4)GlcNAc(b1-3)Gal(b1-4)GlcNAc(b1-2)Man(a1-3)]Man(b1-4)GlcNAc(b1-4)[Fuc(a1-6)]GlcNAc
# In short: as §1
# [23] = molecular target: GlcNAc(b1-3)Gal(b1-4)GlcNAc(b1-3)Gal(b1-4)GlcNAc(b1-3)Gal(b1-4)GlcNAc(b1-2)Man(a1-3)[GlcNAc(b1-3)Gal(b1-4)GlcNAc(b1-3)Gal(b1-4)GlcNAc(b1-3)Gal(b1-4)GlcNAc(b1-2)Man(a1-6)]Man(b1-4)GlcNAc(b1-4)GlcNAc
# In short: as §1
# [24] = molecular target: GlcNAc(b1-3)Gal(b1-4)GlcNAc(b1-3)Gal(b1-4)GlcNAc(b1-3)Gal(b1-4)GlcNAc(b1-2)Man(a1-3)[GlcNAc(b1-3)Gal(b1-4)GlcNAc(b1-3)Gal(b1-4)GlcNAc(b1-3)Gal(b1-4)GlcNAc(b1-2)Man(a1-6)]Man(b1-4)GlcNAc(b1-4)[Fuc(a1-6)]GlcNAc
# In short: as §1
# [25] = molecular target: GlcNAc(b1-3)Gal(b1-4)GlcNAc(b1-3)Gal(b1-4)GlcNAc(b1-3)Gal(b1-4)GlcNAc(b1-2)[GlcNAc(b1-3)Gal(b1-4)GlcNAc(b1-3)Gal(b1-4)GlcNAc(b1-3)Gal(b1-4)GlcNAc(b1-6)]Man(a1-6)[GlcNAc(b1-3)Gal(b1-4)GlcNAc(b1-3)Gal(b1-4)GlcNAc(b1-3)Gal(b1-4)GlcNAc(b1-2)Man(a1-3)]Man(b1-4)GlcNAc(b1-4)[Fuc(a1-6)]GlcNAc
# In short: as §1
# [26] = molecular target: GlcNAc(b1-3)Gal(b1-4)GlcNAc(b1-3)Gal(b1-4)GlcNAc(b1-3)Gal(b1-4)GlcNAc(b1-3)Gal(b1-4)GlcNAc(b1-2)Man(a1-3)[GlcNAc(b1-3)Gal(b1-4)GlcNAc(b1-3)Gal(b1-4)GlcNAc(b1-3)Gal(b1-4)GlcNAc(b1-3)Gal(b1-4)GlcNAc(b1-2)Man(a1-6)]Man(b1-4)GlcNAc(b1-4)GlcNAc
# In short: as §1
# [27] = molecular target: GlcNAc(b1-3)Gal(b1-4)GlcNAc(b1-3)Gal(b1-4)GlcNAc(b1-3)Gal(b1-4)GlcNAc(b1-3)Gal(b1-4)GlcNAc(b1-2)Man(a1-3)[GlcNAc(b1-3)Gal(b1-4)GlcNAc(b1-3)Gal(b1-4)GlcNAc(b1-3)Gal(b1-4)GlcNAc(b1-3)Gal(b1-4)GlcNAc(b1-2)Man(a1-6)]Man(b1-4)GlcNAc(b1-4)[Fuc(a1-6)]GlcNAc
# In short: as §1
# [28] = molecular target: GlcNAc(b1-3)Gal(b1-4)GlcNAc(b1-3)Gal(b1-4)GlcNAc(b1-3)Gal(b1-4)GlcNAc(b1-3)Gal(b1-4)GlcNAc(b1-2)[GlcNAc(b1-3)Gal(b1-4)GlcNAc(b1-3)Gal(b1-4)GlcNAc(b1-3)Gal(b1-4)GlcNAc(b1-3)Gal(b1-4)GlcNAc(b1-6)]Man(a1-6)[GlcNAc(b1-3)Gal(b1-4)GlcNAc(b1-3)Gal(b1-4)GlcNAc(b1-3)Gal(b1-4)GlcNAc(b1-3)Gal(b1-4)GlcNAc(b1-2)Man(a1-3)]Man(b1-4)GlcNAc(b1-4)[Fuc(a1-6)]GlcNAc
# In short: as §1
# [29] = molecular target: GlcNAc(b1-3)Gal(b1-4)GlcNAc(b1-3)Gal(b1-4)GlcNAc(b1-3)GalNAc
# In short: as §1
# [30] = molecular target: GlcNAc(b1-3)Gal(b1-4)GlcNAc(b1-3)GalNAc
# In short: as §1
# [31] = molecular target: GlcNAc(b1-3)Gal(b1-4)GlcNAc(b1-3)[GlcNAc(b1-3)Gal(b1-4)GlcNAc(b1-3)]GalNAc
# In short: as §1
# [32] = molecular target: GlcNAc(b1-3)Gal(b1-4)GlcNAc(b1-6)[Gal(b1-3)]GalNAc
# In short: as §1
# [33] = molecular target: GlcNAc(b1-3)Gal(b1-4)GlcNAc(b1-6)[GlcNAc(b1-3)Gal(b1-3)]GalNAc
# In short: as §1
# [34] = molecular target: GlcNAc(b1-3)Gal(b1-4)GlcNAc(b1-6)[GlcNAc(b1-3)]Gal(b1-4)GlcNAc
# In short: as §1
binder,measurement,setting,value
B1,glycan array binding signal (z-score),[1],0.512
same,glycan array binding signal (z-score),[2],-0.005
same,glycan array binding signal (z-score),[3],-0.466
same,glycan array binding signal (z-score),[4],0.155
same,glycan array binding signal (z-score),[5],-0.307
same,glycan array binding signal (z-score),[6],-0.34
same,glycan array binding signal (z-score),[7],-0.931
same,glycan array binding signal (z-score),[8],-0.593
same,glycan array binding signal (z-score),[9],0.066
same,glycan array binding signal (z-score),[10],-0.818
same,glycan array binding signal (z-score),[11],-0.51
same,glycan array binding signal (z-score),[12],1.06
same,glycan array binding signal (z-score),[13],-0.397
same,glycan array binding signal (z-score),GlcNAc(b1-3)Fuc,-0.187
same,glycan array binding signal (z-score),GlcNAc(b1-3)Gal,-0.756
same,glycan array binding signal (z-score),[14],0.097
same,glycan array binding signal (z-score),GlcNAc(b1-3)Gal(b1-4)Glc,-0.72
same,glycan array binding signal (z-score),[15],-0.065
same,glycan array binding signal (z-score),[16],-0.303
same,glycan array binding signal (z-score),[17],0.19
same,glycan array binding signal (z-score),[18],0.124
same,glycan array binding signal (z-score),[19],-0.336
same,glycan array binding signal (z-score),[20],2.87
same,glycan array binding signal (z-score),[21],-0.126
same,glycan array binding signal (z-score),[22],0.772
same,glycan array binding signal (z-score),[23],0.104
same,glycan array binding signal (z-score),[24],0.13
same,glycan array binding signal (z-score),[25],1.82
same,glycan array binding signal (z-score),[26],0.047
same,glycan array binding signal (z-score),[27],0.146
same,glycan array binding signal (z-score),[28],1.04
same,glycan array binding signal (z-score),[29],-0.324
same,glycan array binding signal (z-score),[30],-0.131
same,glycan array binding signal (z-score),[31],0.031
same,glycan array binding signal (z-score),[32],-0.292
same,glycan array binding signal (z-score),[33],0.059
same,glycan array binding signal (z-score),[34],-0.109

# 2 entries picked at random from the list so far:
binder,measurement,setting,value
B1,glycan array binding signal (z-score),[8],-0.593
same,glycan array binding signal (z-score),[26],0.047
